Results as given in PubChem BioAssay AID504444 (National Center for Advancing Translational Sciences (NCATS), 2011).
Screen size: about 360,000 compounds; about 7,500 (2.1%) were called active. This list was built around the results that the source calls inconclusive (neither active nor inactive); the mix of calls is not that of the screen. The call rests on the fitted dose curve; in most records, active means well fitted inhibition curve with a large enough effect; inconclusive means small, poorly fitted or top-dose-only effect, or effect the other way; inactive means flat fitted curve, though single readings scatter. Potencies beside an inconclusive call are fits to weak or partial responses and may not hold up.

Assay: Nrf2 qHTS screen for inhibitors; further: nearly all actives have a fitted effect of over 60% in size
Conditions: A549 ARE-Fluc reporter, luciferase luminescence, 18-24 h; series mostly up to 46 µM
Method in brief: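 Cells were seeded and rested 2 h, then exposed to compounds for 18-24 h. CellTiter-Fluor was read first as a viability measure. BugLite was added 15 min before the final luminescent read of ARE-luciferase activity in A549 cells.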
Potency means the concentration at half of the fitted maximal effect.

| Compound | Potency |
| --- | --- |
| Cc1ccc(S(=O)(=O)Nc2cc3c(cc2C)n(C)c(=O)c(=O)n3C)c(C)c1 | inconclusive: 10.3 µM [falling, partial curve, poor fit] |
| O=C(OCc1c(-c2ccccc2)ncc2ccccc12)c1cccc(Br)c1 | inactive |
| O=C(CSc1ncnc2sccc12)N1CCCCC1 | inconclusive: 6.51 µM [activator, partial curve] |
| C=C(C1=CCN(S(=O)C(C)(C)C)[C@H]1CCO)c1ccccc1 (stereo partly drawn) | inconclusive: 25.9 µM [falling, partial curve, poor fit] |
| O=C(O)c1ccc(-c2noc(-c3cccc(F)c3)n2)cc1 | inconclusive: 1.64 µM [activator, full curve, poor fit] |
| CC(C)(C)c1cnnn1-c1ccc(/C=N/Nc2ccc([N+](=O)[O-])cc2)cc1 | inconclusive: 18.4 µM [falling, single point] |
| N#C/C(=C\c1cn(Cc2ccccc2F)c2ccccc12)C(=O)NCc1ccco1 | inconclusive: 29.1 µM [falling, partial curve, poor fit] |
| CCCN1C(C(=O)c2ccccc2)=C(OC(=O)c2ccc(OC)cc2)c2ccccc2S1(=O)=O | inconclusive: 18.4 µM [falling, single point] |
| COc1cc(NC(=O)Nc2cccc3cccnc23)cc(OC)c1OC | inconclusive: 9.2 µM [falling, partial curve, poor fit] |
| NC1=C([N+](=O)[O-])C(c2ccc3c(c2)OCO3)C2=C(CCCC2=O)O1 (stereo not drawn) | inconclusive: 29.1 µM [activator, single point] |
| COc1ccc(OC)c(NC(=O)c2ccc(OCC(=O)N3CCOCC3)c(OC)c2)c1 | inactive |
| C[C@@]12C(=O)N(c3cccc(Br)c3)C(=O)N1[C@H](c1ccc(Cl)cc1)[C@@H]1C(=O)N(C3CCCCC3)C(=O)[C@@H]12 | inconclusive: 23.1 µM [falling, partial curve] |
| O=C(Cn1c(=O)c(C(F)(F)F)nc2ccccc21)Nc1cccc(Br)c1 | inconclusive: 29.1 µM [activator, single point] |
| Cc1nc2ccc([N+](=O)[O-])cc2nc1C | inactive |
| O=C1CCc2cc(S(=O)(=O)Nc3cc(F)cc(Cl)c3)c(F)cc2N1 | inactive |
| CC(=O)Nc1ccc(SCC(=O)c2cc(C)n(Cc3cccs3)c2C)cc1 | inconclusive: 32.6 µM [falling, single point] |
| O=[N+]([O-])c1c(NCCO)cc(N2CCC3(CC2)OCCO3)c2nonc12 | inactive |
| Cc1cccc(C(=O)Nc2cc(S(=O)(=O)N3CCOCC3)ccc2N2CCCC2)c1 | inactive |
| O=C(c1cc(-c2ccc(O)cc2)on1)N1CCCC1 | inconclusive: 0.92 µM [activator, partial curve, poor fit] |
| CCOC(=O)c1ccccc1NC(=O)Cc1ccc(S(=O)(=O)N2CCCC2)s1 | inconclusive: 18.4 µM [falling, single point] |
| CC1=C(C(=O)OCCOc2ccccc2)C(c2ccsc2)NC(=O)N1C (stereo not drawn) | inconclusive: 13 µM [falling, partial curve, poor fit] |
| Cc1ccccc1Nc1nc(C#N)nc(NC2CCCC2)n1 | active: 9.2 µM |

| Compound | Potency |
| --- | --- |
| CCn1c(=O)sc2cc(NS(=O)(=O)c3ccc(C)cc3)ccc21 | active: 18.4 µM |
| OB(O)c1csc2ccccc12 | inconclusive: 8.2 µM [activator, partial curve] |
| Cc1ccccc1NC(=O)c1ccc(CSc2ncccn2)cc1 | inconclusive: 5.8 µM [activator, single point] |
| Nc1ccc(-c2nc3c(Cl)c(N)ccc3[nH]2)cc1 | inconclusive: 2.06 µM [activator, full curve] |
| Cc1ccc(NC(=O)C(C)Sc2nc(-c3ccccc3)c(C#N)c(=O)[nH]2)c(C)c1 (stereo not drawn) | inactive |
| Cc1cccc(N2CCN(S(=O)(=O)c3cc(-c4cc(C)no4)ccc3C)CC2C)c1 (stereo not drawn) | active: 7.31 µM |
| O=S(=O)(/C=C/c1ccccc1)N1CCN(Cc2ccc3c(c2)OCO3)CC1 | inconclusive: 18.4 µM [falling, single point] |
| O=C(NCc1nc(-c2ccc(Cl)cc2)no1)c1ccc2c(c1)OCO2 | inconclusive: 29.1 µM [falling, single point] |
| CC(CCc1ccccc1)NC(=O)Cc1ccc(Br)cc1 (stereo not drawn) | inconclusive: 2.06 µM [falling, full curve] |
| O=C(Nc1cccc2cccnc12)c1ccc(Br)cc1 | inactive |
| CCOc1cc(CN2CCN(S(=O)(=O)c3ccc(C)cc3)CC2)ccc1OC | inconclusive: 23.1 µM [falling, partial curve, poor fit] |
| COc1cc(NC(=O)CCc2nc3cccnc3n2Cc2cccs2)cc(OC)c1OC | inconclusive: 23.1 µM [falling, single point] |
| CC1(C(=O)NC2CCCCC2)Cc2ccccc2C(=O)N1Cc1ccccc1Cl (stereo not drawn) | inactive |
| O=C(COC(=O)CNC(=O)c1ccccc1)Nc1nc(-c2ccccc2)cs1 | inconclusive: 2.06 µM [activator, full curve, poor fit] |
| O=C(CCc1nc2cccnc2n1-c1ccccc1)Nc1ccc(Cl)c(Cl)c1 | inconclusive: 25.9 µM [falling, partial curve, poor fit] |
| c1ccc(-n2ncc3c(NCC4CCCO4)ncnc32)cc1 (stereo not drawn) | inconclusive: 2.24 µM [activator, full curve, poor fit] |
| Nc1c2c(nc3ccccc13)N(c1ccccc1)CC2 | inactive |
| CN(C)c1ccc(C2C=C(c3ccccc3)Nc3nnnn32)cc1 (stereo not drawn) | inactive |
| CN1C(=O)/C(=C/C=C2\SCCN2C)N(C)C1=S | inconclusive: 9.2 µM [activator, partial curve] |
| CC1C(=O)Nc2ccc(S(=O)(=O)N3CCN(c4cccc(Cl)c4)CC3)cc2NC1=O (stereo not drawn) | inconclusive: 29.1 µM [falling, single point] |
| C=CCN1C(c2cccc(C(F)(F)F)c2)=CS/C1=C(/C#N)c1nnc(N2CCOCC2)n1-c1ccccc1 | inconclusive: 2.59 µM [falling, full curve, poor fit] |

Looked up by compound from the list above, two records:

| Compound | Potency |
| --- | --- |
| Cc1ccc(NC(=O)C(C)Sc2nc(-c3ccccc3)c(C#N)c(=O)[nH]2)c(C)c1 (stereo not drawn) | inactive |
| C=CCN1C(c2cccc(C(F)(F)F)c2)=CS/C1=C(/C#N)c1nnc(N2CCOCC2)n1-c1ccccc1 | inconclusive: 2.59 µM [falling, full curve, poor fit] |
